Measurements from the supplement of paper PMC10849652.
The other results are listed elsewhere or left out.

By UniProt entry, the sequences of proteins in these tests, tags left out. Where a name states a change or a piece, a line headed by the entry shows the natural chain unless it says otherwise.
UniProt Q8N8Z6: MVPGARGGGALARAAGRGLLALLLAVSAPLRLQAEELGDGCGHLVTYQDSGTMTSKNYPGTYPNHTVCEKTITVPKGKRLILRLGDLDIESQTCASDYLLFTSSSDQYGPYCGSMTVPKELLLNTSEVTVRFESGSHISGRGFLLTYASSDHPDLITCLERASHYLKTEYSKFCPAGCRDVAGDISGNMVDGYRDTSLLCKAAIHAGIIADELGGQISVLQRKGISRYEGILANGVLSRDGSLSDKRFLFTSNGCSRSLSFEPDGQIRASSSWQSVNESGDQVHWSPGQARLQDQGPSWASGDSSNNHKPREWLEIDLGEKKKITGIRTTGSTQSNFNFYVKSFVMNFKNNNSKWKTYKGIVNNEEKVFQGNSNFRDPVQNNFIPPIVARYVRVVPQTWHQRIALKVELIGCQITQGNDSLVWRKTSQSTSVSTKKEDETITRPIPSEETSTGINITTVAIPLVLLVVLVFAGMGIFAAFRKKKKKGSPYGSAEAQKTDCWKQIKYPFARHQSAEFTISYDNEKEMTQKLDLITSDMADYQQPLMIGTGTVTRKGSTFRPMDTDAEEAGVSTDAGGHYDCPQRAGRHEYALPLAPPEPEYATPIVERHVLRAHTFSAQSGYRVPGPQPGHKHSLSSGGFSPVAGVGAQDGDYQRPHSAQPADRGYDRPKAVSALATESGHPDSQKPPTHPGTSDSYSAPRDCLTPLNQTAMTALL
UniProt Q9BWK5: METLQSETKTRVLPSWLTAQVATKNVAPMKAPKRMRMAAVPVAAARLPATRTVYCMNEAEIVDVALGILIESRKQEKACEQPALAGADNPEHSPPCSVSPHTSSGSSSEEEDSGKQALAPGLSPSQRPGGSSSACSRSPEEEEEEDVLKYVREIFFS
UniProt Q9BSY9: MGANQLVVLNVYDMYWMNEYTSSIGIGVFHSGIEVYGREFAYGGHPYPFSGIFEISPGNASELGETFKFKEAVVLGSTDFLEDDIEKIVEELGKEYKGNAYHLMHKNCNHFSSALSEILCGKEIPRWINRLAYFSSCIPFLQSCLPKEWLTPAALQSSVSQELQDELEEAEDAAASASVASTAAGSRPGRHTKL
UniProt Q8WV16: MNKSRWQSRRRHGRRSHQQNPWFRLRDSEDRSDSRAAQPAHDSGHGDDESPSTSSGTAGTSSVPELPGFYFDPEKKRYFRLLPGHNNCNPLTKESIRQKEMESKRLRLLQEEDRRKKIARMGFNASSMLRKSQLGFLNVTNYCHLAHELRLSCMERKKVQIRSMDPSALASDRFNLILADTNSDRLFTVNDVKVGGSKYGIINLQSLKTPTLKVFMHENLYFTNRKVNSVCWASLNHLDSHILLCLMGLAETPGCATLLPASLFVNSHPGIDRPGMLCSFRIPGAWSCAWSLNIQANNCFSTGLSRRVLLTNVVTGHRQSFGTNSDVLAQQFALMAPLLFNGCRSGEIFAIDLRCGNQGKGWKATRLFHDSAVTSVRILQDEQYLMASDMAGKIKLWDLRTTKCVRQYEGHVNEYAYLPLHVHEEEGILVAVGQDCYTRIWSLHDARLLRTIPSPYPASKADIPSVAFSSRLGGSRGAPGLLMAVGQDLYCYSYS
UniProt P35638, whole entry, looked up: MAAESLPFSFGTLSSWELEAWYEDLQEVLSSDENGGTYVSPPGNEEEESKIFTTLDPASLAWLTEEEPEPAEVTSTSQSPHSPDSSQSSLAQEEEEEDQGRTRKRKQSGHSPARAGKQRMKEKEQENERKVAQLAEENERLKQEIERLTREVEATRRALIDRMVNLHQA
UniProt Q8N8A6: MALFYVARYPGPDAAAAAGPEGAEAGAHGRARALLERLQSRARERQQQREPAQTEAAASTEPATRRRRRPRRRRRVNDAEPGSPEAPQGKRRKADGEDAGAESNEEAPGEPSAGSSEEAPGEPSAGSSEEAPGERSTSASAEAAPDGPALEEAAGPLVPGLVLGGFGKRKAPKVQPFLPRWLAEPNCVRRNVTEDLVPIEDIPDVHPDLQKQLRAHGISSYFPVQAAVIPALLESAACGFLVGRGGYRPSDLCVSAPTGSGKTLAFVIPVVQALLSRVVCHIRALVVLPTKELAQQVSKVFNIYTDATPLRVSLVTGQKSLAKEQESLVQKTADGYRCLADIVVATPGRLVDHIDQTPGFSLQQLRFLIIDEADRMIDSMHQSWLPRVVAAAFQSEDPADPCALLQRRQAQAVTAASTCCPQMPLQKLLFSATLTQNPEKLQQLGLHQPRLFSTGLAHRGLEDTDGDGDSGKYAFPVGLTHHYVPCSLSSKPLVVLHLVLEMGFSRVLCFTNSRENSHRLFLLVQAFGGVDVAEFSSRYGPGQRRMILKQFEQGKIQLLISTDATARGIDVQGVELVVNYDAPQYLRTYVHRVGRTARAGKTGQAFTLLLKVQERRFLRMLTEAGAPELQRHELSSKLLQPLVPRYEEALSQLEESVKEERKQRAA
UniProt Q7L5Y6, whole entry, looked up: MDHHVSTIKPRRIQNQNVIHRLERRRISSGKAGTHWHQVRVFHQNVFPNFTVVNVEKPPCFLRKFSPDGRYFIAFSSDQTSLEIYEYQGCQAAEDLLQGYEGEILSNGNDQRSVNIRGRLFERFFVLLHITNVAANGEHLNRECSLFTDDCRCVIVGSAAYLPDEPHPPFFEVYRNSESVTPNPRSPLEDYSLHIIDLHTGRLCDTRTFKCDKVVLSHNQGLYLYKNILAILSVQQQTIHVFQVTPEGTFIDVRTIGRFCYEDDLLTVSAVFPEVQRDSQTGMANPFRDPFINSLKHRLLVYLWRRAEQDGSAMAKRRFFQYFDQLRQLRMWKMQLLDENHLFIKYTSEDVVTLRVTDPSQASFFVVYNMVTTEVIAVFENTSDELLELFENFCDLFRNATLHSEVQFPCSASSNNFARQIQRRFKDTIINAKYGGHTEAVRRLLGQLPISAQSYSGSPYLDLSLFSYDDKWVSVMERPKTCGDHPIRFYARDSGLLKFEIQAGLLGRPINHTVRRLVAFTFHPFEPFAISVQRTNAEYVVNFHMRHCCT
UniProt Q6ICB0: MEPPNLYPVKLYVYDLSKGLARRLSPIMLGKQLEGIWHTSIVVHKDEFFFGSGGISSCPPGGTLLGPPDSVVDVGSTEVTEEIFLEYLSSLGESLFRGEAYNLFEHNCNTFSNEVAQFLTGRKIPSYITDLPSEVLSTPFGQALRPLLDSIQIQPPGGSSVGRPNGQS
UniProt Q9NUL7: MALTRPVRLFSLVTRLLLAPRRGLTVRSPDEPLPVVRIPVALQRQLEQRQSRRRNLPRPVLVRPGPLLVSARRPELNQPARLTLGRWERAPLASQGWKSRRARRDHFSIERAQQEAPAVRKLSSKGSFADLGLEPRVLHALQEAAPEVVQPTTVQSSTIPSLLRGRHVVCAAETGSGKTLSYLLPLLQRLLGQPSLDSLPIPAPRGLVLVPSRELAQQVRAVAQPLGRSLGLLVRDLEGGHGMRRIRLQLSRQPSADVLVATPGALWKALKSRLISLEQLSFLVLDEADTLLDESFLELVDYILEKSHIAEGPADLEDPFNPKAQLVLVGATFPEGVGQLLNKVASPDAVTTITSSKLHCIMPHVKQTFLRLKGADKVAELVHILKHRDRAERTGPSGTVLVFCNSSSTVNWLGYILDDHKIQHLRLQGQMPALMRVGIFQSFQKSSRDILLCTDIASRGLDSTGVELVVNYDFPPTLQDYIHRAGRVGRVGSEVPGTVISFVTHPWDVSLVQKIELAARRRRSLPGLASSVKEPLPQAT
UniProt Q8WUY9, whole entry, looked up: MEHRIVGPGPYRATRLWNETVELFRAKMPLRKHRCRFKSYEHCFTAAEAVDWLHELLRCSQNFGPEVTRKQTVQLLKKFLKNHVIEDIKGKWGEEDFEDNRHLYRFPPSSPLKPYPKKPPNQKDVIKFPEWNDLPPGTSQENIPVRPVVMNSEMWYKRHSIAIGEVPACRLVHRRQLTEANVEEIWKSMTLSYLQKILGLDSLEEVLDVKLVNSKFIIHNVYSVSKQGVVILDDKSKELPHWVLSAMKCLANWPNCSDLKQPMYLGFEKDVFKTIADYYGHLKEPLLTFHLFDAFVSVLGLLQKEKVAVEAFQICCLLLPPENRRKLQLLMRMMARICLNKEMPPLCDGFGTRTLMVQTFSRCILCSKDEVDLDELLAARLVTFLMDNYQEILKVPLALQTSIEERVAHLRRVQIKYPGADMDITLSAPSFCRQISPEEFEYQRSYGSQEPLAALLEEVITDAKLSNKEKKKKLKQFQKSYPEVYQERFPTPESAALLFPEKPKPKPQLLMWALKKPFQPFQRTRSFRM
UniProt Q9NX09: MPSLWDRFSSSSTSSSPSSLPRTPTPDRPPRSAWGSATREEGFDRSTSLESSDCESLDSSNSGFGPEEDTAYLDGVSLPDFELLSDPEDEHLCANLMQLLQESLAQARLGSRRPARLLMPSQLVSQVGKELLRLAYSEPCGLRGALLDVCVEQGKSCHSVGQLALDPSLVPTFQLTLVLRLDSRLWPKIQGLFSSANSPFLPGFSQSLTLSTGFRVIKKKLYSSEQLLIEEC
UniProt Q96QD5: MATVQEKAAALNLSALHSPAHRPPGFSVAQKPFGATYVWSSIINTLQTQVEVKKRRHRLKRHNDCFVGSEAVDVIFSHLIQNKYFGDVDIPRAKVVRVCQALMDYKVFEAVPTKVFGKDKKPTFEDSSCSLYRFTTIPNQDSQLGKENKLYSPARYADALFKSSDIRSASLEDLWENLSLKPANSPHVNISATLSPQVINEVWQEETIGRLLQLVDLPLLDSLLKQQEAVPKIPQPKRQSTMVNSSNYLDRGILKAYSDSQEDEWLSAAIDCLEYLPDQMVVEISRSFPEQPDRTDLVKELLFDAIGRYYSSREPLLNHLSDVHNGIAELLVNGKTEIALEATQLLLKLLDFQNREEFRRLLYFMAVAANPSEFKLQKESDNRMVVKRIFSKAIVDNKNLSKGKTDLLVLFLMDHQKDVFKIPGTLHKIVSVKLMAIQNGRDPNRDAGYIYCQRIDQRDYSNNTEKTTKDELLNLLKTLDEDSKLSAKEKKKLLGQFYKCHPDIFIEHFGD
UniProt Q5D0E6: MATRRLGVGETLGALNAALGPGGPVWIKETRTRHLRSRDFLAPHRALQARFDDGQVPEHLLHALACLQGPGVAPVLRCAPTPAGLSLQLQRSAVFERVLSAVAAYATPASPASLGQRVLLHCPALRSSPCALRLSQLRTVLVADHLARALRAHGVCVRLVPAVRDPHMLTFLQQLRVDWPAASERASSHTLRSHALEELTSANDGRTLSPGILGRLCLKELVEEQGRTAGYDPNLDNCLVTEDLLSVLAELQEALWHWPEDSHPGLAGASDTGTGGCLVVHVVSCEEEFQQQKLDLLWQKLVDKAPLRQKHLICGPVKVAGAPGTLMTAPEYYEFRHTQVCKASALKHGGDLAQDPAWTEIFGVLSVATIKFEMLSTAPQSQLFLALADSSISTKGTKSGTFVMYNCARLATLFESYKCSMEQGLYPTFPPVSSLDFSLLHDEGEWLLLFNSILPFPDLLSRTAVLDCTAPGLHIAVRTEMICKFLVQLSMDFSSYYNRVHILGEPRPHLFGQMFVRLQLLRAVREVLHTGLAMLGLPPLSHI
UniProt Q9HBI6: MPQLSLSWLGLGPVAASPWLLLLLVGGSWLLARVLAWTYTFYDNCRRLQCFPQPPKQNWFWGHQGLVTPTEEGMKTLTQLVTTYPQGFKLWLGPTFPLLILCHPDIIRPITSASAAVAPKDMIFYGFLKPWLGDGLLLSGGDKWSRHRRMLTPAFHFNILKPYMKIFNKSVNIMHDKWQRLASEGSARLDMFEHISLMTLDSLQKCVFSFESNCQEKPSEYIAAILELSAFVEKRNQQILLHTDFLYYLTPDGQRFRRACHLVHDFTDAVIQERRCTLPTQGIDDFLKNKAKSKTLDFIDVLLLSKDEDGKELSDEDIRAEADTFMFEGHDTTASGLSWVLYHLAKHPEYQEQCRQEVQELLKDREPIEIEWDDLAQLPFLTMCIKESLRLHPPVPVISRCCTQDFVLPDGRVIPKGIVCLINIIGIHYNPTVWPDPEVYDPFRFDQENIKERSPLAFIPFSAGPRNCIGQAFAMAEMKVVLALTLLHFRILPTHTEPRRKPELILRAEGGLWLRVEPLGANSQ
UniProt O43739: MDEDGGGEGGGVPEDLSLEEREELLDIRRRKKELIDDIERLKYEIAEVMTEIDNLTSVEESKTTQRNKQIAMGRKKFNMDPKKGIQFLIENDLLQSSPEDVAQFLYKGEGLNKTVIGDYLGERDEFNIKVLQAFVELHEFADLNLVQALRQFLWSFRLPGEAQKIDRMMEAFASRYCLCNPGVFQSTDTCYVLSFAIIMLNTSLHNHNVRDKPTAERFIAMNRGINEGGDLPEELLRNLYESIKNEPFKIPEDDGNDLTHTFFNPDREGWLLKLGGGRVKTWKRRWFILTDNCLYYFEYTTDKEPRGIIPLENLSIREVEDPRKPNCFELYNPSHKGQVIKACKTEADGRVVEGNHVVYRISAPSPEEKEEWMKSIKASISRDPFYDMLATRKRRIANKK
UniProt Q15038: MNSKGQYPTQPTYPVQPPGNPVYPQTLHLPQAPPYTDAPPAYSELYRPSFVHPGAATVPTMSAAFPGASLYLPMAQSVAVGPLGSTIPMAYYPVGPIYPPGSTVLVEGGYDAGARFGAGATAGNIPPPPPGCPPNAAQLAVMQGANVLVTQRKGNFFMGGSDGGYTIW

Assays:
Assay in all cases: log2 fold change, soluble protein after heating vs DMSO (PISA); higher = thermal stabilisation; K562 lysate, 10 uM; active = over 0.2 and 3.5 SD of the protein, either way, in both replicates (recomputed)
[1] = compound: C1CCN(C1)C(=O)NC2=CC=CC(=C2)NC3=NC=C(C(=N3)NCCC4=CN=CN4)Br
Outline: (§1)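 A 30 min treatment with 10 μM compound was applied to crude K562 extract at 1 mg/mL protein in PBS pH 7.4 with 1 mM MgCl2. Heating for 3 min spanned 48°C-58°C, after which aliquots were pooled, adjusted to 0.5% NP-40 at 4°C and spun at 21,000xg for 90 min. TMTpro 16plex LC-MS/MS of the supernatant, with channel sums equalised, gave values recorded as log-two fold change in thermal stability against solvent controls, from duplicates.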

[2] = compound: C1CN(CCC1(CC2=CC=C(C=C2)Cl)N)C3=NC=NC4=C3C=CN4
Outline: as §1

erlotinib = compound: C#Cc1cccc(Nc2ncnc3cc(OCCOC)c(OCCOC)cc23)c1 [erlotinib]
Outline: as §1

[3] = compound: C1=CC(=CC=C1C2=NC3=C(N2)C=C(C=C3)C(=O)N)OC4=CC=C(C=C4)Cl
Outline: as §1

[4] = compound: C1=CC2=NC=CN=C2C=C1/C=C/3\C(=O)NC(=O)S3
Outline: as §1

[5] = compound: C1=CC=C(C=C1)C2=NC(=C(N2)C3=CC=NC=C3)C4=CC(=C(C=C4)Cl)O
Outline: as §1

IRAK-1-4 Inhibitor I = compound: C1COCCN1CCN2C3=CC=CC=C3N=C2NC(=O)C4=CC(=CC=C4)[N+](=O)[O-] [IRAK-1-4 Inhibitor I]
Outline: as §1

[6] = compound: C/C(=N\NC(=O)C1=CC(=CC=C1)S(=O)(=O)N2CCOCC2)/C3=C(C=CC(=C3)Cl)O
Outline: as §1

[7] = compound: C1=CC2=C(C=CC(=C2)/C=C\3/C(=O)NC(=NCC4=CC=CS4)S3)N=C1
Outline: as §1

[8] = compound: C1=CC=C2C(=C1)C3=NNC4=CC=CC(=C43)C2=O
Outline: as §1

Measured: log2 fold change

DCBLD1 (UniProt Q8N8Z6)
inactive: [1] -0.441 | [2] 0.305

DEUP1 (UniProt Q05D60)
inactive: erlotinib 0.143 | [3] 0.168 | [4] 0.049 | [5] 0.167 | [1] 0.083 | [2] -0.012 | IRAK-1-4 Inhibitor I 0.167

DDR1 isoform 5 (UniProt Q08345)
inactive: [4] 0.044 | [5] 0.04 | [1] -0.011 | [2] -0.016 | IRAK-1-4 Inhibitor I 0.097

DDAH1 (UniProt O94760)
inactive: erlotinib 0 | [6] -0.008 | [3] 0.006 | [7] -0.027 | [5] -0.006 | [8] 0.035 | [1] 0.032 | [2] 0.051 | IRAK-1-4 Inhibitor I -0.016

CYTH1 (UniProt Q15438)
inactive: erlotinib 0.007 | [3] 0.059 | [4] 0.022 | [5] 0.034 | [1] 0.011 | [2] 0.042 | IRAK-1-4 Inhibitor I 0.011

CYP4V2 (UniProt Q6ZWL3)
inactive: erlotinib -0.07 | [3] 0.014 | [4] 0.126 | [5] 0.099 | IRAK-1-4 Inhibitor I 0.074

CYREN isoform 4 (UniProt Q9BWK5)
inactive: erlotinib 0.059 | [3] 0.062 | [5] -0.09 | IRAK-1-4 Inhibitor I -0.028

DESI2 (UniProt Q9BSY9)
inactive: [6] 0.195 | [7] -0.043 | [8] 0.119 | [1] 0.002 | [2] 0.067

DCLRE1C (UniProt Q96SD1)
inactive: [5] 0.046 | IRAK-1-4 Inhibitor I 0.076

DCAF4 (UniProt Q8WV16)
inactive: [4] -0.227 | [1] -0.095 | [2] -0.047

DDIT3 isoform 2 (UniProt P35638)
inactive: [6] 0.056 | [7] 0.004 | [8] 0.029 | [1] -0.004 | [2] -0.037

DDX11 (UniProt Q96FC9)
inactive: erlotinib 0.019 | [6] 0.044 | [3] -0.159 | [7] 0.025 | [5] -0.006 | [8] 0.091 | IRAK-1-4 Inhibitor I -0.009

DDX51 (UniProt Q8N8A6)
inactive: erlotinib -0.067 | [3] 0 | [5] 0 | IRAK-1-4 Inhibitor I -0.054

DDX46, A0A0C4DG89
inactive: [6] -0.135 | [7] 0.03 | [4] 0.047 | [8] -0.161 | [1] -0.085 | [2] -0.066

DET1 isoform 2 (UniProt Q7L5Y6)
inactive: erlotinib 0.104 | [3] 0.094 | [5] 0.167 | IRAK-1-4 Inhibitor I -0.051

Taken from the listing (eight entries):
CYTH1 (UniProt Q15438)
inactive: erlotinib 0.007 | [3] 0.059 | [4] 0.022 | [5] 0.034 | [1] 0.011 | [2] 0.042 | IRAK-1-4 Inhibitor I 0.011

CYP4V2 (UniProt Q6ZWL3)
inactive: erlotinib -0.07 | [3] 0.014 | [4] 0.126 | [5] 0.099 | IRAK-1-4 Inhibitor I 0.074

CYREN isoform 4 (UniProt Q9BWK5)
inactive: erlotinib 0.059 | [3] 0.062 | [5] -0.09 | IRAK-1-4 Inhibitor I -0.028

DESI2 (UniProt Q9BSY9)
inactive: [6] 0.195 | [7] -0.043 | [8] 0.119 | [1] 0.002 | [2] 0.067

DCLRE1C (UniProt Q96SD1)
inactive: [5] 0.046 | IRAK-1-4 Inhibitor I 0.076

DCAF4 (UniProt Q8WV16)
inactive: [4] -0.227 | [1] -0.095 | [2] -0.047

DDIT3 isoform 2 (UniProt P35638)
inactive: [6] 0.056 | [7] 0.004 | [8] 0.029 | [1] -0.004 | [2] -0.037

DDX11 (UniProt Q96FC9)
inactive: erlotinib 0.019 | [6] 0.044 | [3] -0.159 | [7] 0.025 | [5] -0.006 | [8] 0.091 | IRAK-1-4 Inhibitor I -0.009

(cont.)

DESI1 (UniProt Q6ICB0)
inactive: [6] 0.256 | [7] 0.033 | [4] 0.022 | [8] 0.038 | [1] 0.098 | [2] 0.091

DDX28 (UniProt Q9NUL7)
inactive: erlotinib -0.022 | [3] 0.019 | [4] -0.072 | [5] -0.074 | IRAK-1-4 Inhibitor I -0.07

DCAF12L2 (UniProt Q5VW00)
inactive: [6] 0.495 | [7] -0.012 | [4] -0.01 | [8] 0.02 | [1] 0.006 | [2] -0.058

DEAF1 (UniProt O75398)
inactive: [1] -0.082 | [2] 0.185

DBNDD1 isoform 3 (UniProt Q9H9R9)
inactive: erlotinib 0.118 | [3] 0.117 | [5] 0.005 | [1] 0.063 | [2] 0.157 | IRAK-1-4 Inhibitor I 0.063

DEPDC1B (UniProt Q8WUY9)
inactive: [6] -0.095 | [7] 0.01 | [5] -0.089 | [8] 0.417 | [1] -0.03 | [2] 0.139 | IRAK-1-4 Inhibitor I -0.007

DDIT4 (UniProt Q9NX09)
inactive: [6] 0.381 | [7] -0.055 | [8] -0.022 | [1] -0.171 | [2] -0.062

DCUN1D3 (UniProt Q8IWE4)
inactive: [4] -0.037 | [1] 0.161 | [2] 0.031

DCAF5 (UniProt Q96JK2)
inactive: [6] 0.114 | [7] -0.161 | [8] 0.091

DCBLD2 isoform 2 (UniProt Q96PD2)
inactive: [5] -0.588 | IRAK-1-4 Inhibitor I -0.134

DEPDC7 (UniProt Q96QD5)
inactive: [1] -0.007 | [2] -0.031

DALRD3 (UniProt Q5D0E6)
inactive: erlotinib 0.034 | [6] 0.152 | [3] 0.05 | [7] -0.413 | [8] 0.021 | [1] 0.031 | [2] -0.068

CYP4F11 (UniProt Q9HBI6)
inactive: [5] 0.236 | IRAK-1-4 Inhibitor I -0.205

DCUN1D1 (UniProt C9JVE2)
inactive: erlotinib 0.097 | [3] -0.046 | [4] 0.017 | [5] 0.077 | [1] -0.007 | [2] 0.031 | IRAK-1-4 Inhibitor I 0.254

CYTH3 (UniProt O43739)
inactive: [5] -0.041 | IRAK-1-4 Inhibitor I 0.099

DAPK2 isoform 2 (UniProt Q9UIK4)
inactive: erlotinib 0.037 | [6] -0.008 | [3] -0.364 | [7] -0.037 | [5] 0.102 | [8] 0.244 | IRAK-1-4 Inhibitor I 0.034

DAZAP2 (UniProt Q15038)
inactive: erlotinib 0.028 | [3] 0.126

DAPK1 isoform 3 (UniProt P53355)
inactive: erlotinib -0.015 | [6] -0.17 | [3] -0.306 | [7] -0.274 | [5] 0.061 | [8] 0.181 | IRAK-1-4 Inhibitor I 0.008

DENND5B isoform 2 (UniProt Q6ZUT9)
inactive: erlotinib 0.119 | [3] 0.004 | [4] -0.032 | [5] 0.002 | IRAK-1-4 Inhibitor I 0.09
